Results as given in article doi:10.1101/2023.06.12.544600.
Results are given in words; binding and its absence hold for the method and conditions named. In cells and extracts the contact can be indirect. Some results given as binding are weak or reduced against the parent protein; the word gives no strength. Where a sequence is shown, tags or fusion partners need not be part of it.

Target: T1, Dmo2p with its C-terminal fused to protein C epitope followed by polyhistidine (Dmo2p-CH) (S. cerevisiae) (UniProt Q12082)
T1 sequence: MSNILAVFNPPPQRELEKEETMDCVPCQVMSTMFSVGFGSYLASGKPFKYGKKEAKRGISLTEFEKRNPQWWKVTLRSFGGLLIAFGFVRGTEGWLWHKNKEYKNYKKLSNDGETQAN
Test: co-IP

B1: Cox2p, subunit two of the cytochrome c oxidase complex (protein, UniProt P00410 16-251)
chain: DVPTPYACYFQDSATPNQEGILELHDNIMFYLLVILGLVSWMLYTIVMTYSKNPIAYKYIKHGQTIEVIWTIFPAVILLIIAFPSFILLYLCDEVISPAMTIKAIGYQWYWKYEYSDFINDSGETVEFESYVIPDELLEEGQLRLLDTDTSMVVPVDTHIRFVVTAADVIHDFAIPSLGIKVDATPGRLNQVSALIQREGVFYGACSELCGTGHANMPIKIEAVSLPKFLEWLNEQ
With B1 the binding was “binds”.
